Source: the supplement of paper PMC10849652
The other results are listed elsewhere or left out.

Chains of the proteins cited; added tags and fusions are not shown. Lines headed by an entry give the natural chain unless they say otherwise; changes in a name come on top.
UniProt Q6P4A7: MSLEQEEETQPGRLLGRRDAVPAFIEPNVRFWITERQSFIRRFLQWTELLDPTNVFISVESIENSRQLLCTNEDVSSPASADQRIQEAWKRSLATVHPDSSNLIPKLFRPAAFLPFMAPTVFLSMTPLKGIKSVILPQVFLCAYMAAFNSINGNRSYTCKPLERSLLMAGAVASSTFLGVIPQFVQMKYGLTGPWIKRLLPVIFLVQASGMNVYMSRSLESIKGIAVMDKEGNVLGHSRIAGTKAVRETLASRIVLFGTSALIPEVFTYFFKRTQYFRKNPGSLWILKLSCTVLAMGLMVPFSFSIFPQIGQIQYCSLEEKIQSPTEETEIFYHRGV
UniProt Q53H47: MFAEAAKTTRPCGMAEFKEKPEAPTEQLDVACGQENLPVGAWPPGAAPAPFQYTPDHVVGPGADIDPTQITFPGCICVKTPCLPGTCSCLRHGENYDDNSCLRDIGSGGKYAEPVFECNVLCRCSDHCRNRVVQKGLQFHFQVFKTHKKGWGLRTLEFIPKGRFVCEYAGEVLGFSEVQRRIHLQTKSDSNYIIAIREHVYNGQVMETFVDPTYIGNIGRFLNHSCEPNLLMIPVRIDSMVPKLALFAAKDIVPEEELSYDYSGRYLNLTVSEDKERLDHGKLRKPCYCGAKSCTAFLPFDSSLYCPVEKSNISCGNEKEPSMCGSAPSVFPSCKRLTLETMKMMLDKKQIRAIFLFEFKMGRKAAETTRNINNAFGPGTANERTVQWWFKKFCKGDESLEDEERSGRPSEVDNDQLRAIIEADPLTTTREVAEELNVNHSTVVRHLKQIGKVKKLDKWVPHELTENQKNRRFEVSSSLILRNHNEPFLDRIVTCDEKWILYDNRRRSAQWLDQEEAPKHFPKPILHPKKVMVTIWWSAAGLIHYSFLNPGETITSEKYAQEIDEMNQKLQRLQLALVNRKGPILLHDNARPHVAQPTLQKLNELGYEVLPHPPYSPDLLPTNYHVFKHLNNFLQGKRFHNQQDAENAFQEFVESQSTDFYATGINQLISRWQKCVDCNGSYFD
UniProt P55822: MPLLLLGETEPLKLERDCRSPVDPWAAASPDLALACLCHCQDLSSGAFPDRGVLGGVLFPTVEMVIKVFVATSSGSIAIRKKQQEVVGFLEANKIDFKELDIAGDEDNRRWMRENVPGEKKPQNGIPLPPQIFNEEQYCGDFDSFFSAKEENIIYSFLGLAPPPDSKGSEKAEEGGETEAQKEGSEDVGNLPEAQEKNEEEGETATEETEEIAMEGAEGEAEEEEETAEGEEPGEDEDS
UniProt Q9UGK8: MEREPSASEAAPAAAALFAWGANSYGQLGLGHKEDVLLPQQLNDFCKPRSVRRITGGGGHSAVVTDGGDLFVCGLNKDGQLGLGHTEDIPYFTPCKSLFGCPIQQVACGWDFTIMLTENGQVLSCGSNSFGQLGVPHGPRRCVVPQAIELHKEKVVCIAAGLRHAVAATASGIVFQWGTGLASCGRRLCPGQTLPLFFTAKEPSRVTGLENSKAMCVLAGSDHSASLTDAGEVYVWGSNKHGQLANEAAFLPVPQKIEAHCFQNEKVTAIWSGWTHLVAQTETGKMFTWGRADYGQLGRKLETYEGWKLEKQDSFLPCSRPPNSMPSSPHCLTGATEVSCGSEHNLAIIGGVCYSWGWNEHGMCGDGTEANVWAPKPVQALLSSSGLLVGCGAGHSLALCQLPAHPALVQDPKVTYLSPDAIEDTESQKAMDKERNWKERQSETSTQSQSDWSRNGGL
UniProt Q8WVK7: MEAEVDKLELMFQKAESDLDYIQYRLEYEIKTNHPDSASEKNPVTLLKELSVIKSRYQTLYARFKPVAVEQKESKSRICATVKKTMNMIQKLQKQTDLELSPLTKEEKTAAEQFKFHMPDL
UniProt Q15637: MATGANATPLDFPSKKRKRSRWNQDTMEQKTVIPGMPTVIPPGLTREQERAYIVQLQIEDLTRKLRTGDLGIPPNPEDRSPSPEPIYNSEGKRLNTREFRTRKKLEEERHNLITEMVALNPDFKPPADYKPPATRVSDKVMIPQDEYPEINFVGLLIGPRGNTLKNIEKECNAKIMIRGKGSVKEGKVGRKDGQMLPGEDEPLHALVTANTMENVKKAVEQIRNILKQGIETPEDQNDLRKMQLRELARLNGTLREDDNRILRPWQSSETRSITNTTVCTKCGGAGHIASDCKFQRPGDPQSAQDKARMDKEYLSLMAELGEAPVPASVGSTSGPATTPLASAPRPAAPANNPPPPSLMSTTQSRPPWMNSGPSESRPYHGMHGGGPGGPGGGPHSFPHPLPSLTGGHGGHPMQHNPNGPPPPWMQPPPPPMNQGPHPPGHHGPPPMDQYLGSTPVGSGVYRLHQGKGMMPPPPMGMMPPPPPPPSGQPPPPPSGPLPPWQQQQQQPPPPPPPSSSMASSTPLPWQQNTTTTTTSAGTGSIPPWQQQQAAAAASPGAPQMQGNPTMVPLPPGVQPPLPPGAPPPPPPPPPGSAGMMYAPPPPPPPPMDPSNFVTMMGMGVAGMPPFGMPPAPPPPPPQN
UniProt P84101: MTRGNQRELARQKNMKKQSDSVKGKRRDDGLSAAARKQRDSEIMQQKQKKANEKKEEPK
UniProt Q96FS4: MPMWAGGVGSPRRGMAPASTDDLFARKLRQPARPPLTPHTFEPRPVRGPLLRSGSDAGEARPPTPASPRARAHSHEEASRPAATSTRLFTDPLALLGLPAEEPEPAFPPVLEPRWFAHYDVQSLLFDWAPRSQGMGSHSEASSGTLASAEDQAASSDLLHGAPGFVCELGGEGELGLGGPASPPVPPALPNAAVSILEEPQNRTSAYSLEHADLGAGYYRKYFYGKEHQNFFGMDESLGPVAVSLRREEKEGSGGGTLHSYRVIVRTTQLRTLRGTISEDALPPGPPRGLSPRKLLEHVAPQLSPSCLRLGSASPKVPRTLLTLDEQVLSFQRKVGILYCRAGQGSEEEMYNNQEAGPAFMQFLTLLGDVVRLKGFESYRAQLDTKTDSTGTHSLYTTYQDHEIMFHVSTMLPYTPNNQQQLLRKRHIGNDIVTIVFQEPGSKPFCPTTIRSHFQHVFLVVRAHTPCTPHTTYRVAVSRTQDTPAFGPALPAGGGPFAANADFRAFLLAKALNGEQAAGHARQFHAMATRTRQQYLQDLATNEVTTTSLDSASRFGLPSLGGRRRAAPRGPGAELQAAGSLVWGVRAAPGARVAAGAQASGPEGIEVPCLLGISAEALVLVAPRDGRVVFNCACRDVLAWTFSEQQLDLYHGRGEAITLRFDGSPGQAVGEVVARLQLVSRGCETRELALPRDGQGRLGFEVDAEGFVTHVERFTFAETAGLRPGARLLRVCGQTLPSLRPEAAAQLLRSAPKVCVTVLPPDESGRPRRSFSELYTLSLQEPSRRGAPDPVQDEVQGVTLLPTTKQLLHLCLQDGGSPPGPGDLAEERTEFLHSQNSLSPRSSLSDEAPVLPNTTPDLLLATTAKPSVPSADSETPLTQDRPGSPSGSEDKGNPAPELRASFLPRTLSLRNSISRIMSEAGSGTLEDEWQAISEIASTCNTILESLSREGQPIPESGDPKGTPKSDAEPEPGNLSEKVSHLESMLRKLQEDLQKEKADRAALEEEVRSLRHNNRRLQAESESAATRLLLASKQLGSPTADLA
UniProt Q96EB6: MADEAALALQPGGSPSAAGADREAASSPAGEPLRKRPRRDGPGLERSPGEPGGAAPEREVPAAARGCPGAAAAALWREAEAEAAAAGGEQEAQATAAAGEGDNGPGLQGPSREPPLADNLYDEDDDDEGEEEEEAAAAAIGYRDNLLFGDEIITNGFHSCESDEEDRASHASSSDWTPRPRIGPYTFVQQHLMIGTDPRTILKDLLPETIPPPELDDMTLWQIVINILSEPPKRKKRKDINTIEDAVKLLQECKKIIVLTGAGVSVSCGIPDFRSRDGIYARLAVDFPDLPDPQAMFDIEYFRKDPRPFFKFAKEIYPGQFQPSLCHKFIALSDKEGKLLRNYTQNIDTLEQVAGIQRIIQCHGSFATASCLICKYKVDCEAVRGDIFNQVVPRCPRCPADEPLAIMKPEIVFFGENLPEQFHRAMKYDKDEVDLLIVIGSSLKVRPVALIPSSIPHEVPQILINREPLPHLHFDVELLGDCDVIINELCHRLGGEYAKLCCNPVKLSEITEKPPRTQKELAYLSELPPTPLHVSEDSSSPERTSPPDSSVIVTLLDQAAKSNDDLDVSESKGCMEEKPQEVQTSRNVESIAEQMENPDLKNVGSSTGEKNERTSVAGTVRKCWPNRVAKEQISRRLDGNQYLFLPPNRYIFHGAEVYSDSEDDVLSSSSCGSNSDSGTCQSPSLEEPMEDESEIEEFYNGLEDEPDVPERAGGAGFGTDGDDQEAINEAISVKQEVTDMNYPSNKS
UniProt P23246: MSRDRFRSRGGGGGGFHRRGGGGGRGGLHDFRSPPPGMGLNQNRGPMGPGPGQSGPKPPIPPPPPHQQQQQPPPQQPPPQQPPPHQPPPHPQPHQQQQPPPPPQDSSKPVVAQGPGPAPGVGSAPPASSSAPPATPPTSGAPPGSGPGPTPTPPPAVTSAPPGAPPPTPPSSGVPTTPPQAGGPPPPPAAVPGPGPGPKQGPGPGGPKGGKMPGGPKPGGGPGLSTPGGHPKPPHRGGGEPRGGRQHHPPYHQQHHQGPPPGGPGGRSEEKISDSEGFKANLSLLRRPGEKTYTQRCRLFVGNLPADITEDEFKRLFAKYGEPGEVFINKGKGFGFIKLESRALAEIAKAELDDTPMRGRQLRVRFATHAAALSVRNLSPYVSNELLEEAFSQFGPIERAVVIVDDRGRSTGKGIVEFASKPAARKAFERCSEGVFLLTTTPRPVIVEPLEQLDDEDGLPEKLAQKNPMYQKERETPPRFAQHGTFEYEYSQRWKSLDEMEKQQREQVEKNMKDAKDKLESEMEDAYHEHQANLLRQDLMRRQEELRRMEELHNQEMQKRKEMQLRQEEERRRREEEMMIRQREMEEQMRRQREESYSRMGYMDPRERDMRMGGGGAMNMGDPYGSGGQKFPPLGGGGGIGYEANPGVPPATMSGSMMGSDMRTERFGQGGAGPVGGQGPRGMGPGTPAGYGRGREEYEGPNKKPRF
UniProt O60239: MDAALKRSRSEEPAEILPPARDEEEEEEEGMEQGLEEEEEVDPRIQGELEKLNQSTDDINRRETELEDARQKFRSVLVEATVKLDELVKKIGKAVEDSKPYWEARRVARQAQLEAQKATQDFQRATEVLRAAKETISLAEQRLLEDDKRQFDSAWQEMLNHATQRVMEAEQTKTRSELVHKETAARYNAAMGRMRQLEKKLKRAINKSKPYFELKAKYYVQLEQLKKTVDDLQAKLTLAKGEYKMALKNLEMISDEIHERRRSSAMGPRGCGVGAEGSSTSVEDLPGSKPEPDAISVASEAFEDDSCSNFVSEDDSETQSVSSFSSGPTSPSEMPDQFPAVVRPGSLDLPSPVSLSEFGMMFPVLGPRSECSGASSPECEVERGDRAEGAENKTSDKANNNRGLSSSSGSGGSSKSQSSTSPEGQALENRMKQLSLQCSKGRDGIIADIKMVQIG
UniProt P34896: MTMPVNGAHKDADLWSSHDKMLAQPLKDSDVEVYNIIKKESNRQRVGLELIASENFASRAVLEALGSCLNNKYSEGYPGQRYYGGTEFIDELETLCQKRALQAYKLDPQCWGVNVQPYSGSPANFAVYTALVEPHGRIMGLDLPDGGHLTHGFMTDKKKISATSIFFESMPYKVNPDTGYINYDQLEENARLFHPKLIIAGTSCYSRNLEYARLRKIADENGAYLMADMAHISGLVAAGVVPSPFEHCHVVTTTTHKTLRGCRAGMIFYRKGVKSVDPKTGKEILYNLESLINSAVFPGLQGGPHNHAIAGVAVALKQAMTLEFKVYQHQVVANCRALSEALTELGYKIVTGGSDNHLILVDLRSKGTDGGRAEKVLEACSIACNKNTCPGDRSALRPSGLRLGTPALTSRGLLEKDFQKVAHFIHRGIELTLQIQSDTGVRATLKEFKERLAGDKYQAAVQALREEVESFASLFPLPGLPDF
UniProt O95562: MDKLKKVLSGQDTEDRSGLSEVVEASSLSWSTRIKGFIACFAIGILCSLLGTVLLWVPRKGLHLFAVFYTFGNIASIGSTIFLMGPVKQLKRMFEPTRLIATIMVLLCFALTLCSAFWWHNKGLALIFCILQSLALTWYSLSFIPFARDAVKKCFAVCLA
UniProt Q14493, whole entry, looked up: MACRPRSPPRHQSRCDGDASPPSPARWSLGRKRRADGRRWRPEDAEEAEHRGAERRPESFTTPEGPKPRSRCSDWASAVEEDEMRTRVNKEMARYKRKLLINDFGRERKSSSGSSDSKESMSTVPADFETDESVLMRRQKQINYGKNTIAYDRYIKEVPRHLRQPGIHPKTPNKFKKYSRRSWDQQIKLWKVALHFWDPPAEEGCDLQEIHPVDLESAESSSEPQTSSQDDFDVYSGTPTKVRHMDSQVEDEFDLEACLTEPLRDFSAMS
UniProt Q9H299: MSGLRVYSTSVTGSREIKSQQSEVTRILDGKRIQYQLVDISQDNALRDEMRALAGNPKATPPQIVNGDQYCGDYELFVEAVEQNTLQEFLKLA

Each target was assayed with Cc1ccc(-n2nc(C(C)(C)C)cc2NC(=O)Nc2ccc(OCCN3CCOCC3)c3ccccc23)cc1 [doramapimod] (assay: log2 fold change, soluble protein after heating vs DMSO (PISA); higher = thermal stabilisation; K562 lysate, 10 uM; active = over 0.2 and 3.5 SD of the protein, either way, in both replicates (recomputed)).
In short: (§1)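 Dounce homogenisation of K562 pellets in PBS pH 7.4 with 1 mM MgCl2 produced a crude extract, used at 1 mg/mL protein. Exposure to 10 μM compound lasted 30 min, and aliquots were then heated for 3 min across 48°C-58°C, pooled and brought to 0.5% NP-40 at 4°C. The supernatant after 21,000xg for 90 min was quantified by TMTpro 16plex LC-MS/MS with channel sums equalised. Duplicate values are given as log-two fold change in thermal stability relative to solvent controls.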

| Target | log2 fold change |
| --- | --- |
| SFXN4 (UniProt Q6P4A7) | inactive: 0.047 |
| SETMAR (UniProt Q53H47) | inactive: 0.012 |
| SH3BGR (UniProt P55822) | inactive: 0.026 |
| SERGEF (UniProt Q9UGK8) | inactive: -0.028 |
| SKA2 (UniProt Q8WVK7) | inactive: -0.09 |
| SF1 isoform 5 (UniProt Q15637) | inactive: 0.009 |
| SERF2 (UniProt P84101) | inactive: 0.044 |
| SIPA1 (UniProt Q96FS4) | inactive: 0.008 |
| SIGMAR1 (UniProt Q99720) | inactive: -0.001 |
| SERPINB6, A0A087X1N8 | inactive: -0.054 |
| SIRT1 (UniProt Q96EB6) | inactive: -0.012 |
| SFPQ (UniProt P23246) | inactive: 0.006 |
| SH3BP5 (UniProt O60239) | inactive: 0.044 |
| SHMT1 (UniProt P34896) | inactive: 0.012 |
| SH2D2A isoform 2 (UniProt Q9NP31) | inactive: -0.102 |
| SFT2D2 (UniProt O95562) | inactive: 0.098 |
| SLBP (UniProt Q14493) | inactive: 0.03 |
| SHMT2 (UniProt P34897) | inactive: 0.009 |

What follows are targets tested with Cc1ccc(NC(=O)c2ccc(CN3CC[C@H](N(C)C)C3)c(C(F)(F)F)c2)cc1Nc1nccc(-c2cncnc2)n1 [bafetinib] in the same assay as above.
In short: as §1

| Target | log2 fold change |
| --- | --- |
| SESN2 (UniProt P58004) | inactive: -0.15 |
| SLC11A2 isoform 3 (UniProt P49281) | inactive: 0.035 |
| SERPINH1 (UniProt P50454) | inactive: -0.002 |
| SKAP2 (UniProt O75563) | inactive: -0.056 |
| SH3BGRL3 (UniProt Q9H299) | inactive: 0.038 |
| SLAIN2 (UniProt Q9P270) | inactive: 0.009 |
| SH3BGRL2 (UniProt Q9UJC5) | inactive: -0.058 |
| SH3GL1 (UniProt Q99961) | inactive: -0.001 |
| SIRT5 (UniProt Q9NXA8) | inactive: -0.057 |
| SERBP1 (UniProt Q8NC51) | inactive: 0.065 |
| SFSWAP isoform 2 (UniProt Q12872) | inactive: -0.012 |
| SERPINB9 (UniProt P50453) | inactive: 0.099 |
| SIRT2 (UniProt Q8IXJ6) | inactive: 0.092 |
| SF3B1 (UniProt O75533) | inactive: -0.023 |
| SFXN4 (UniProt Q6P4A7) | inactive: 0.154 |
| SETMAR (UniProt Q53H47) | inactive: 0.031 |

| Target | log2 fold change |
| --- | --- |
| SH3BGR (UniProt P55822) | inactive: -0.026 |
| SERGEF (UniProt Q9UGK8) | inactive: -0.028 |
| SKA2 (UniProt Q8WVK7) | inactive: -0.017 |
| SF1 isoform 5 (UniProt Q15637) | inactive: 0.018 |
| SERF2 (UniProt P84101) | inactive: 0.011 |
| SIPA1 (UniProt Q96FS4) | inactive: -0.034 |
| SIGMAR1 (UniProt Q99720) | inactive: 0.008 |
| SERPINB6, A0A087X1N8 | inactive: 0.079 |
| SIRT1 (UniProt Q96EB6) | inactive: -0.021 |
| SFPQ (UniProt P23246) | inactive: -0.015 |
| SH3BP5 (UniProt O60239) | inactive: -0.101 |
| SHMT1 (UniProt P34896) | inactive: 0.023 |
| SH2D2A isoform 2 (UniProt Q9NP31) | inactive: -0.099 |
| SFT2D2 (UniProt O95562) | inactive: -0.091 |
| SLBP (UniProt Q14493) | inactive: -0.028 |
| SHMT2 (UniProt P34897) | inactive: 0.023 |

The targets below were run with Cc1cccc(CC(=O)N2CCc3c2ccc(-c2cn(C)c4ncnc(N)c24)c3F)n1 in the same assay as above.
In short: as §1

| Target | log2 fold change |
| --- | --- |
| SESN2 (UniProt P58004) | inactive: 0.003 |
| SLC11A2 isoform 3 (UniProt P49281) | inactive: 0.036 |
| SERPINH1 (UniProt P50454) | inactive: 0.004 |
| SKAP2 (UniProt O75563) | inactive: 0.08 |
| SH3BGRL3 (UniProt Q9H299) | inactive: 0.007 |
| SLAIN2 (UniProt Q9P270) | inactive: 0.015 |
| SH3BGRL2 (UniProt Q9UJC5) | inactive: -0.184 |
| SH3GL1 (UniProt Q99961) | inactive: -0.063 |
| SIRT5 (UniProt Q9NXA8) | inactive: -0.146 |
| SERBP1 (UniProt Q8NC51) | inactive: -0.064 |
| SFSWAP isoform 2 (UniProt Q12872) | inactive: 0.095 |
| SERPINB9 (UniProt P50453) | inactive: -0.049 |
| SIRT2 (UniProt Q8IXJ6) | inactive: 0.066 |
| SF3B1 (UniProt O75533) | inactive: 0.011 |
| SFXN4 (UniProt Q6P4A7) | inactive: 0.119 |
| SETMAR (UniProt Q53H47) | inactive: 0.01 |

| Target | log2 fold change |
| --- | --- |
| SH3BGR (UniProt P55822) | inactive: 0.032 |
| SERGEF (UniProt Q9UGK8) | inactive: -0.007 |
| SKA2 (UniProt Q8WVK7) | inactive: 0.009 |
| SF1 isoform 5 (UniProt Q15637) | inactive: 0.019 |
| SERF2 (UniProt P84101) | inactive: 0.088 |
| SIPA1 (UniProt Q96FS4) | inactive: 0.042 |
| SIGMAR1 (UniProt Q99720) | inactive: 0.127 |
| SERPINB6, A0A087X1N8 | inactive: -0.044 |
| SIRT1 (UniProt Q96EB6) | inactive: -0.016 |
| SFPQ (UniProt P23246) | inactive: -0.013 |
| SH3BP5 (UniProt O60239) | inactive: -0.046 |
| SHMT1 (UniProt P34896) | inactive: -0.007 |
| SH2D2A isoform 2 (UniProt Q9NP31) | inactive: 0.065 |
| SFT2D2 (UniProt O95562) | inactive: 0.009 |
| SLBP (UniProt Q14493) | inactive: -0.072 |
| SHMT2 (UniProt P34897) | inactive: -0.026 |
